The source of these data is paper PMC4314665, “Diversity of two-component systems: insights into the signal transduction mechanism by the Staphylococcus aureus two-component system GraSR” (F1000Research, 2014).

No constants are given. Whether binding was seen depends on the method and setting. Sequences can lack the tags named with a protein.

The assay concerns the target GST (glutathione S-transferase alone). The experiment in a line: pull-down; GST-fused bait immobilised on glutathione-sepharose resin in 1 x PBS; prey added at bait:prey ratios of about 1:1 to 1:2, 30 min at room temperature; five to seven washes; elution with 10 mM reduced glutathione in 50 mM Tris pH 8.0; SDS-PAGE; both purified.

B1: GraX, auxiliary protein (tagless) (natural protein)
chain: MKPKVLLAGGTGYIGKYLSEVIENDAELFAISKYPDNKKTDDVEMTWIQCDIFHYEQVVAAMNQIDIAVFFIDPTKNSAKITQSSARDLTLIAADNFGRAAAINQVKKVIYIPGSRYDNETIERLGAYGTPVETTNLVFKRSLVNVELQVSKYDDVRSTMKVVLPKGWTLKNVVNHFIAWMGYTKGTFVKTEKSHDQFKIYIKNKVRPLAVFKIEETADGIITLILLSGSLVKKYTVNQGKLEFRLIKESAVVYIHLYDYIPRLFWPIYYFIQAPMQKMMIHGFEVDCRIKDFQSRLKSGENMKYTK
notes: Auxiliary protein GraX, S. aureus strain Mu50, full length graX gene; Cloned in pET26b between NdeI and HindIII; Dimers seen by SDS-PAGE without DTT; also called untagged GraX; source: E. coli BL21(DE3), purified (SP-Sepharose cation exchange), to 90%
As to B1, the binding entry was “no binding”.
